Reference: paper PMC3861474, “From PII Signaling to Metabolite Sensing: A Novel 2-Oxoglutarate Sensor That Details PII - NAGK Complex Formation” (PLoS ONE, 2013)
No constants are given. Whether binding was seen depends on the method and setting. Where a sequence is shown, tags or fusion partners need not be part of it.

Legend:
[1] = biological target: T1, NAGK‑FL25‑C (NAGK fused by a flexible 25-residue linker to Cerulean) (Synechococcus elongatus) (UniProt Q6V1L5); experiment: FRET or BRET; association kinetics: FRET ratio (525 nm / 475 nm emission) every 8 s, excitation 433 nm; NAGK-FL25-C preincubated at 37 °C, then PII-Venus variant added; 100 nM proteins; 0.1 mM ATP; ratio not background-subtracted (0.54 is the zero baseline); both purified
T1 sequence: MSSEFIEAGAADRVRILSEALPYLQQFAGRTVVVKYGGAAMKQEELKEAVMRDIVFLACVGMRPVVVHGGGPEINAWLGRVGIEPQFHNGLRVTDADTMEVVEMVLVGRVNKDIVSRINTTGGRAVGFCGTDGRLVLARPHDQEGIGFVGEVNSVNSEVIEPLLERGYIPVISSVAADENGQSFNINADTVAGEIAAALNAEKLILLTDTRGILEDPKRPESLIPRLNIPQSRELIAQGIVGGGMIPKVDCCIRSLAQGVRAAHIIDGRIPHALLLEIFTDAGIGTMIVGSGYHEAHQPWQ

[2] = biological target: T2, N-acetyl-L-glutamate kinase (NAGK), His-tagged wild type (Synechococcus elongatus) (UniProt Q6V1L5); experiment: SPR; BIAcore X; His-tagged NAGK-wt (30 nM hexamer) bound to Ni2+-loaded NTA chip to ~1500 RU; PII variants injected as analyte; control flow cell subtracted; both purified
T2 sequence: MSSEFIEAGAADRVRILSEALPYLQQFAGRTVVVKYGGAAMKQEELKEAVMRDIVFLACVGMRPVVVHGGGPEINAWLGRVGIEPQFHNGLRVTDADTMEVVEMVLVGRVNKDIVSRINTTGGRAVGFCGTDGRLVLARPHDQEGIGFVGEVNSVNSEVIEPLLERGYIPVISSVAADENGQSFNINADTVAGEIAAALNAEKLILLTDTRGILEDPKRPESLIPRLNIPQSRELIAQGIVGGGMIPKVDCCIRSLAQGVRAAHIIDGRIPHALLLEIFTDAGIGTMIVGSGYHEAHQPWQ

[3] = biological target: T1, NAGK‑FL25‑C (NAGK fused by a flexible 25-residue linker to Cerulean) (Synechococcus elongatus); experiment: FRET or BRET; emission spectra 445-640 nm, excitation of Cerulean at 433 nm; NAGK-Cerulean fusions with equimolar PII-Venus fusions (100 nM); spectra corrected for Venus emission without FRET; 50 mM imidazole pH 7.5, 50 mM KCl, 20 mM MgCl2, 0.5 mM DTT, 0.1 mM ATP; both purified

B1: PII-S49G‑E85A‑ST‑V (PII S49G E85A double mutant, Strep-tag as linker, Venus) (protein, UniProt P0A3F4 1-112)
chain: MKKIEAIIRPFKLDEVKIALVNAGIVGMTVSEVRGFGRQKGQTERYRGGEYTVEFLQKLKLEIVVEDAQVDTVIDKIVAAARTGAIGDGKIFVSPVDQTIRIRTGEKNADAI
For B1, which binding [1] is on record?
Its binding is “no binding (tested: 100 nM)”.

What about the binding [2] of the same binder?
The binding was “no binding”.

What about the binding [3] of the same binder?
The binding was “no binding (tested: 100 nM)”.
